# Results reported in the supplement of paper PMC8728848.
# The list shows a part of the results.
# Legend:
# Experiment in all cases: glycan array binding signal (z-score within array); higher = stronger binding
# Conditions in all cases: glycan notation: IUPAC condensed, linker removed
# [1] = biological target: Fuc(a1-2)Gal
# Procedure, shortened: (§1)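 The binding signal is a Z-score computed within each array. Data were drawn from 3228 arrays in the Consortium for Functional Glycomics database, restricted to those with a known protein sequence. Scores were averaged over arrays of the same protein sequence at different concentrations or buffers, and over linkers, and negative values can be taken as non-binding.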
# [2] = biological target: Fuc(a1-2)Gal(b1-3)GalNAc
# Procedure, shortened: as §1
# [3] = biological target: Fuc(a1-2)Gal(b1-3)GalNAc(a1-3)[Fuc(a1-2)]Gal(b1-4)Glc
# Procedure, shortened: as §1
# [4] = biological target: Fuc(a1-2)Gal(b1-3)GalNAc(a1-3)[Fuc(a1-2)]Gal(b1-4)GlcNAc
# Procedure, shortened: as §1
# [5] = biological target: Fuc(a1-2)Gal(b1-3)GalNAc(b1-3)Gal
# Procedure, shortened: as §1
# [6] = biological target: Fuc(a1-2)Gal(b1-3)GalNAc(b1-3)Gal(a1-4)Gal(b1-4)Glc
# Procedure, shortened: as §1
# [7] = biological target: Fuc(a1-2)Gal(b1-3)GalNAc(b1-4)[Neu5Ac(a2-3)]Gal(b1-4)Glc
# Procedure, shortened: as §1
# [8] = biological target: Fuc(a1-2)Gal(b1-3)GlcNAc
# Procedure, shortened: as §1
# [9] = biological target: Fuc(a1-2)Gal(b1-3)GlcNAc(b1-2)Man(a1-3)[Fuc(a1-2)Gal(b1-3)GlcNAc(b1-2)Man(a1-6)]Man(b1-4)GlcNAc(b1-4)GlcNAc
# Procedure, shortened: as §1
# [10] = biological target: Fuc(a1-2)Gal(b1-3)GlcNAc(b1-2)Man(a1-3)[Fuc(a1-2)Gal(b1-3)GlcNAc(b1-2)Man(a1-6)]Man(b1-4)GlcNAc(b1-4)[Fuc(a1-6)]GlcNAc
# Procedure, shortened: as §1
# [11] = biological target: Fuc(a1-2)Gal(b1-3)GlcNAc(b1-3)Gal(b1-4)Glc
# Procedure, shortened: as §1
# [12] = biological target: Fuc(a1-2)Gal(b1-3)GlcNAc(b1-3)GalNAc
# Procedure, shortened: as §1
# [13] = biological target: Fuc(a1-2)Gal(b1-3)GlcNAc(b1-3)[Fuc(a1-2)Gal(b1-3)GlcNAc(b1-6)]GalNAc
# Procedure, shortened: as §1
# [14] = biological target: Fuc(a1-2)Gal(b1-3)GlcNAc(b1-3)[Gal(b1-4)GlcNAc(b1-6)]Gal(b1-4)Glc
# Procedure, shortened: as §1
# [15] = biological target: Fuc(a1-2)Gal(b1-3)GlcNAc(b1-3)[Neu5Ac(a2-6)Gal(b1-4)GlcNAc(b1-6)]Gal(b1-4)Glc
# Procedure, shortened: as §1
# [16] = biological target: Fuc(a1-2)Gal(b1-3)GlcNAc6S
# Procedure, shortened: as §1
# [17] = biological target: Fuc(a1-2)Gal(b1-3)[Fuc(a1-4)]GlcNAc
# Procedure, shortened: as §1
# [18] = biological target: Fuc(a1-2)Gal(b1-3)[Fuc(a1-4)]GlcNAc(b1-2)Man(a1-3)[Fuc(a1-2)Gal(b1-3)[Fuc(a1-4)]GlcNAc(b1-2)Man(a1-3)]Man(b1-4)GlcNAc(b1-4)GlcNAc
# Procedure, shortened: as §1
# [19] = biological target: Fuc(a1-2)Gal(b1-3)[Fuc(a1-4)]GlcNAc(b1-2)Man(a1-3)[Fuc(a1-2)Gal(b1-3)[Fuc(a1-4)]GlcNAc(b1-2)Man(a1-6)]Man(b1-4)GlcNAc(b1-4)[Fuc(a1-6)]GlcNAc(b1-4)[Fuc(a1-6)]GlcNAc
# Procedure, shortened: as §1
# [20] = biological target: Fuc(a1-2)Gal(b1-3)[Fuc(a1-4)]GlcNAc(b1-3)[Fuc(a1-3)[Gal(b1-4)]GlcNAc(b1-6)]Gal(b1-4)Glc
# Procedure, shortened: as §1
# [21] = biological target: Fuc(a1-2)Gal(b1-3)[Fuc(a1-4)]GlcNAc(b1-3)[Gal(b1-4)GlcNAc(b1-6)]Gal(b1-4)Glc
# Procedure, shortened: as §1
# [22] = biological target: Fuc(a1-2)Gal(b1-4)Glc
# Procedure, shortened: as §1
# [23] = biological target: Fuc(a1-2)Gal(b1-4)Glc6S
# Procedure, shortened: as §1
# [24] = biological target: Fuc(a1-2)Gal(b1-4)GlcNAc
# Procedure, shortened: as §1
# [25] = biological target: Fuc(a1-2)Gal(b1-4)GlcNAc(b1-2)Man
# Procedure, shortened: as §1
# [26] = biological target: Fuc(a1-2)Gal(b1-4)GlcNAc(b1-2)Man(a1-3)[Fuc(a1-2)Gal(b1-4)GlcNAc(b1-2)Man(a1-6)]Man(b1-4)GlcNAc(b1-4)GlcNAc
# Procedure, shortened: as §1
# [27] = biological target: Fuc(a1-2)Gal(b1-4)GlcNAc(b1-2)Man(a1-3)[Fuc(a1-2)Gal(b1-4)GlcNAc(b1-2)Man(a1-6)]Man(b1-4)GlcNAc(b1-4)[Fuc(a1-6)]GlcNAc
# Procedure, shortened: as §1
# [28] = biological target: Fuc(a1-2)Gal(b1-4)GlcNAc(b1-2)[Fuc(a1-2)Gal(b1-4)GlcNAc(b1-4)]Man(a1-3)[Fuc(a1-2)Gal(b1-4)GlcNAc(b1-2)Man(a1-6)]Man(b1-4)GlcNAc(b1-4)GlcNAc
# Procedure, shortened: as §1
# [29] = biological target: Fuc(a1-2)Gal(b1-4)GlcNAc(b1-3)Gal(b1-4)GlcNAc
# Procedure, shortened: as §1
# [30] = biological target: Fuc(a1-2)Gal(b1-4)GlcNAc(b1-3)Gal(b1-4)GlcNAc(b1-2)Man(a1-3)[Fuc(a1-2)Gal(b1-4)GlcNAc(b1-3)Gal(b1-4)GlcNAc(b1-2)Man(a1-6)]Man(b1-4)GlcNAc(b1-4)GlcNAc
# Procedure, shortened: as §1
binder,measurement,setting,value
Pbx1CASH domain (Cryptococcus neoformans) (protein) MDETKPLWGNPRADGISLACKDSIVERNVVYDATDGAIVLFGSAGSTVKNNHVYARTRVILGGINLVDYEPWDGDYTNVKVHHNHLYALGRYFKVGIVIGPASWSDDTESVVHSASVTDNEFSGGYWGYGIVVASAKNFEVLRNKVIWDGEQGVARFSGVPGS,glycan array binding signal (z-score),[1],-0.416
same,glycan array binding signal (z-score),[2],-0.606
same,glycan array binding signal (z-score),[3],0.693
same,glycan array binding signal (z-score),[4],0.739
same,glycan array binding signal (z-score),[5],1.37
same,glycan array binding signal (z-score),[6],0.581
same,glycan array binding signal (z-score),[7],-0.348
same,glycan array binding signal (z-score),[8],-0.352
same,glycan array binding signal (z-score),[9],-0.517
same,glycan array binding signal (z-score),[10],-0.339
same,glycan array binding signal (z-score),[11],-0.024
same,glycan array binding signal (z-score),[12],0.513
same,glycan array binding signal (z-score),[13],-0.799
same,glycan array binding signal (z-score),[14],0.324
same,glycan array binding signal (z-score),[15],-0.317
same,glycan array binding signal (z-score),[16],0.576
same,glycan array binding signal (z-score),[17],-0.689
same,glycan array binding signal (z-score),[18],-0.194
same,glycan array binding signal (z-score),[19],-0.153
same,glycan array binding signal (z-score),[20],-0.302
same,glycan array binding signal (z-score),[21],-0.554
same,glycan array binding signal (z-score),[22],-0.337
same,glycan array binding signal (z-score),[23],0.107
same,glycan array binding signal (z-score),[24],-0.647
same,glycan array binding signal (z-score),[25],0.929
same,glycan array binding signal (z-score),[26],0.333
same,glycan array binding signal (z-score),[27],-0.411
same,glycan array binding signal (z-score),[28],-0.526
same,glycan array binding signal (z-score),[29],-0.617
same,glycan array binding signal (z-score),[30],-0.289

# Rewritten bar-delimited: entries from further up.
binder | measurement | setting | value
Pbx1CASH domain (Cryptococcus neoformans) (protein) MDETKPLWGNPRADGISLACKDSIVERNVVYDATDGAIVLFGSAGSTVKNNHVYARTRVILGGINLVDYEPWDGDYTNVKVHHNHLYALGRYFKVGIVIGPASWSDDTESVVHSASVTDNEFSGGYWGYGIVVASAKNFEVLRNKVIWDGEQGVARFSGVPGS | glycan array binding signal (z-score) | [12] | 0.513
same | glycan array binding signal (z-score) | [13] | -0.799
same | glycan array binding signal (z-score) | [14] | 0.324
same | glycan array binding signal (z-score) | [15] | -0.317
same | glycan array binding signal (z-score) | [16] | 0.576
same | glycan array binding signal (z-score) | [17] | -0.689
